Values of other authors, collected in patent US20060228403A1, “Nutritional supplements for cardiovascular health” (priority 2005, published 2006).
For at least one compound, name, drawing or mass did not settle the structure.

System: forearm microcirculation
Conditions: 4 g/d for 6 weeks

| Structure (SMILES) | FBF in response to acetylcholine infusion, relative to placebo | FBF in response to coinfusion of acetylcholine with L-NMMA, relative to placebo | constrictor responses to norepinephrine | dilatory responses to sodium nitroprusside |
| --- | --- | --- | --- | --- |
| CC/C=C\C/C=C\C/C=C\C/C=C\C/C=C\C/C=C\CCC(=O)O [DHA, docosahexaenoic acid] | significantly improved | significantly improved | attenuated | significantly enhanced |
| CC/C=C\C/C=C\C/C=C\C/C=C\C/C=C\CCCC(=O)O [EPA, eicosapentaenoic acid] | not | not |  |  |
